# From patent US10028992B2, “Methods of treating muscular dystrophy” (BOARD OF REGENTS OF THE NEVADA SYSTEM OF HIGHER EDUCATION …, priority 2012, dated 2018)
# At least one structure is not confirmed: it was looked up by name or label, or the drawing left a doubt.
# Tested on: α7 integrin
# Assay: western analysis of α7 integrin in DMD myoblasts/myotubes
# Format: cell-based, human
# Conditions: 2,2-dipyridyl 31.25 μM, deferoxamine 5 and 10 μM, 132 hrs
# Method: FIGS. 13A-13D illustrate western blot studies in which protein extracts from C2C12 (A, B) and DMD (C, D) myoblasts were first treated with PBS or 100 nM LAM-111 and then subjected to western analysis of the α7B integrin and the Cox-1 loading standard. *=p<0.05.
# Protein was extracted from the cells and subjected to western blotting using antibodies against α7 integrin. α-tubulin was used as a loading control.
# It is contemplated that the identified parent scaffolds (Tables 8 and 9) increase α7 integrin expression through a similar mechanism.
smiles,measurement,value
"CC(=O)N(O)CCCCCNC(=O)CCC(=O)N(O)CCCCCNC(=O)CCC(=O)N(O)CCCCCN [Deferoxamine, deferoxamine, reference compound]",α7 integrin protein,increased
